Data from the supplement of paper PMC10849652.
The list shows a part of the results.

Protein sequences, listed by entry. Tags and fused reporters are not part of them. Lines headed by an entry give the natural chain unless they say otherwise; changes in a name come on top.
UniProt Q9NRX5: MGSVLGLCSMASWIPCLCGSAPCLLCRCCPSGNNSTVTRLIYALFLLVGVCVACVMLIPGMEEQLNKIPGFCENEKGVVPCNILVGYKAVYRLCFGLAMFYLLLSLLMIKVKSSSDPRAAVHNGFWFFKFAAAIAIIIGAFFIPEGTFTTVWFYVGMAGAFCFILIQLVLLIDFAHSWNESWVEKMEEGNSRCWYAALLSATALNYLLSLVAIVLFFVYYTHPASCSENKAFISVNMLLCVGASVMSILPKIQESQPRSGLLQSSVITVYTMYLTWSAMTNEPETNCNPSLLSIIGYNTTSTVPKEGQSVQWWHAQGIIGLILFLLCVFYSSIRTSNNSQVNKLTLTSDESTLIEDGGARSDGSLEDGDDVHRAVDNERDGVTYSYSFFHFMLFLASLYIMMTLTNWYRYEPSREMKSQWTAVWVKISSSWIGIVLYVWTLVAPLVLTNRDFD
UniProt Q8IXJ6: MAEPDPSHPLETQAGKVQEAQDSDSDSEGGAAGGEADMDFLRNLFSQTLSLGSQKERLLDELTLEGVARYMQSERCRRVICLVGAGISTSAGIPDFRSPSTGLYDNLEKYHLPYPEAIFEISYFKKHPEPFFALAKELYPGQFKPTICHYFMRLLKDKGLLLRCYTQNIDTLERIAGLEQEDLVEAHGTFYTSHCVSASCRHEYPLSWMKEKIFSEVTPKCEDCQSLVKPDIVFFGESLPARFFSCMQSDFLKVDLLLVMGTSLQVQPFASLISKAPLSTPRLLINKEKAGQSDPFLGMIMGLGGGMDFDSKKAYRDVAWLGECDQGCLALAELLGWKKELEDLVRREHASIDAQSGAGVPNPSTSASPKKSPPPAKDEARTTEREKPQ
UniProt Q99720, whole entry, looked up: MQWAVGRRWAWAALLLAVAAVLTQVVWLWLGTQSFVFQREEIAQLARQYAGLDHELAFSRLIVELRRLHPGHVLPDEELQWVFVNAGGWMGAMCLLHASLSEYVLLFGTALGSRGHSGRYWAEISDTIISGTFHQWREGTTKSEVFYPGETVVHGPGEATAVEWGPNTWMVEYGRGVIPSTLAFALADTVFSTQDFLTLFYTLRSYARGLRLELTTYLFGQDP
UniProt Q96NB2: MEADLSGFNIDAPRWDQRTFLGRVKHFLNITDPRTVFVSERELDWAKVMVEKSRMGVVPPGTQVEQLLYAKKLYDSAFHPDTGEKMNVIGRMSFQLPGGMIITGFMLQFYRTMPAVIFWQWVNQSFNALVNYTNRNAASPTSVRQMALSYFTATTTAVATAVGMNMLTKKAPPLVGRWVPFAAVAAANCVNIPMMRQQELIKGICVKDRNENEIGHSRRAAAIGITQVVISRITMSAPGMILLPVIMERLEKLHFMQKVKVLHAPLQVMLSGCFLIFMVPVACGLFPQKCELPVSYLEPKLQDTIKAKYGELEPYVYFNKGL
UniProt Q9UQ13: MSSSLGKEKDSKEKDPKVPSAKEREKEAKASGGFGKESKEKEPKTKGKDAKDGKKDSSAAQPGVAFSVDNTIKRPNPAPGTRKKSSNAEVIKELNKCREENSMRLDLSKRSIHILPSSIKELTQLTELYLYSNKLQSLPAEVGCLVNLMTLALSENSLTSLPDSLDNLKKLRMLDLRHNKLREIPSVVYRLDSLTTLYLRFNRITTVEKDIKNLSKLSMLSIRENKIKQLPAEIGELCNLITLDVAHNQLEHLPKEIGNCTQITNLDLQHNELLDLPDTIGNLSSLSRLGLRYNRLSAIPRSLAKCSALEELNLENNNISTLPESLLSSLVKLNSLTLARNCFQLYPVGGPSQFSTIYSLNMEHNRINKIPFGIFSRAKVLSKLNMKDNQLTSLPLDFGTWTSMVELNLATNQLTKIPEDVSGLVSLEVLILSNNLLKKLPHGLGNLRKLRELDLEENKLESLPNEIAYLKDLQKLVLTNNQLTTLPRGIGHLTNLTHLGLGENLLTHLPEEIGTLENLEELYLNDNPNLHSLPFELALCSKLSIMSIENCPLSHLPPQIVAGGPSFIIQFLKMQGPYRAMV
UniProt Q9BRV8: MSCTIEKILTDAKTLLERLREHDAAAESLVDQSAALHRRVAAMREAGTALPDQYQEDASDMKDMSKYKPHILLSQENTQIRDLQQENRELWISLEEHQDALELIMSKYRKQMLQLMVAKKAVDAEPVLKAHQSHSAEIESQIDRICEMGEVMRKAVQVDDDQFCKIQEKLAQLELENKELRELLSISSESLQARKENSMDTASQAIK
UniProt Q68CR1: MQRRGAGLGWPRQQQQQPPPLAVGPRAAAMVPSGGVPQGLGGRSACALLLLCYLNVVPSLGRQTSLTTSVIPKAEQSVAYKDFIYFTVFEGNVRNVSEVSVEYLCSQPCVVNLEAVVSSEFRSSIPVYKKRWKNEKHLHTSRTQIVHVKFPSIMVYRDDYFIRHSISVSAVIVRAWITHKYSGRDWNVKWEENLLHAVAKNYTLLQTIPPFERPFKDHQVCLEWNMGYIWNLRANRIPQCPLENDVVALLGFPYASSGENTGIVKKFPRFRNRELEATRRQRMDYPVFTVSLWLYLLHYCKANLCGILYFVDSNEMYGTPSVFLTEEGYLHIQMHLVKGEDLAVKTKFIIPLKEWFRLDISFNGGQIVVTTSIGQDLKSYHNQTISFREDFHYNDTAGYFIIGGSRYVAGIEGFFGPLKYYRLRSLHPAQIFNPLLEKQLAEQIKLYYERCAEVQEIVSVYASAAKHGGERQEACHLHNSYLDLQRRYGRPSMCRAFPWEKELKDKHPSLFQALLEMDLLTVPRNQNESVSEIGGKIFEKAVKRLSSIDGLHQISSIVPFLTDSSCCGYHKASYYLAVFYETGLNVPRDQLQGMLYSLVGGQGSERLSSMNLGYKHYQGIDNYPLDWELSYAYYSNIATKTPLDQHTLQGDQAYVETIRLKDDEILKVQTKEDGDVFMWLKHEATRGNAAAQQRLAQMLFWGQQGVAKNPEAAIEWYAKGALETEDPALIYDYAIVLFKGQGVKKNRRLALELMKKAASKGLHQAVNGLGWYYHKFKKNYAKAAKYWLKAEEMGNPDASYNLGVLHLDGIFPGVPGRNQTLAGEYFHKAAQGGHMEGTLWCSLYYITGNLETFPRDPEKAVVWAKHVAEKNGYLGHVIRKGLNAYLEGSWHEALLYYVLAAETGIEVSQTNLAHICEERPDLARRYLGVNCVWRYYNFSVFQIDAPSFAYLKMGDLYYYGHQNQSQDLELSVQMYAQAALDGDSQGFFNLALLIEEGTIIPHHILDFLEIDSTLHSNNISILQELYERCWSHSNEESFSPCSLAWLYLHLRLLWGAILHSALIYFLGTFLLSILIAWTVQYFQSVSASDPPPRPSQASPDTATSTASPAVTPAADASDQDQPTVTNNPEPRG
UniProt Q9UGK8: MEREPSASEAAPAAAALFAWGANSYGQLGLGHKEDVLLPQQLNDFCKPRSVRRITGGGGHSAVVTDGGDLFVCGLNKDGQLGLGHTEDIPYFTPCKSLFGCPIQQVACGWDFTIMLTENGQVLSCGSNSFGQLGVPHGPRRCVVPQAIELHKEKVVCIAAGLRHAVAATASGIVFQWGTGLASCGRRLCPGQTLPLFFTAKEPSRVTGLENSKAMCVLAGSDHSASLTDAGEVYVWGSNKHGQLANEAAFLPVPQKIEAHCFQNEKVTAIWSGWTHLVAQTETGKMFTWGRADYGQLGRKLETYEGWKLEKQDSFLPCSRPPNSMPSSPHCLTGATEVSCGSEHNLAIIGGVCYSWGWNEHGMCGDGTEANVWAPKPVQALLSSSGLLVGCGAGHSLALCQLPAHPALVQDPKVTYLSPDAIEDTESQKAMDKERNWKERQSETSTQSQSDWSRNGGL
UniProt Q9NR46: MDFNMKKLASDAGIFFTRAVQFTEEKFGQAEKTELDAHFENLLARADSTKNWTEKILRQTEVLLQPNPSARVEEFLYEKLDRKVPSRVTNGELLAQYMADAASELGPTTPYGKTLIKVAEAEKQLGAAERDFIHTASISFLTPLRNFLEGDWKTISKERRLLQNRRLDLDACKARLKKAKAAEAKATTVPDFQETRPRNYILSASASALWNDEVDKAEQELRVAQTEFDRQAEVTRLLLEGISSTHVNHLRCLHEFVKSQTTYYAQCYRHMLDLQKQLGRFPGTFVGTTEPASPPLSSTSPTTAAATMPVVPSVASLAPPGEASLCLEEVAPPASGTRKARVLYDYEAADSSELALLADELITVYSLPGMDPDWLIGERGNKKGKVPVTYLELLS
UniProt Q99719: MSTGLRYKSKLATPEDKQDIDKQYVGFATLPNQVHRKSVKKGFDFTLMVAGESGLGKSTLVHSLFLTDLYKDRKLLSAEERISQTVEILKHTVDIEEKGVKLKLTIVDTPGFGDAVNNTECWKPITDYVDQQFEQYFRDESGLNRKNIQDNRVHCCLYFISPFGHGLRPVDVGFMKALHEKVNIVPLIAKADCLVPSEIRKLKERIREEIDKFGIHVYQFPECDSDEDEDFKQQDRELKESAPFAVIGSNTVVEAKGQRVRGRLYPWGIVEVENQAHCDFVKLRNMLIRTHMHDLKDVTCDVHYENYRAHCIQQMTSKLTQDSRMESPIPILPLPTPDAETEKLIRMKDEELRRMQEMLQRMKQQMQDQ
UniProt Q16181: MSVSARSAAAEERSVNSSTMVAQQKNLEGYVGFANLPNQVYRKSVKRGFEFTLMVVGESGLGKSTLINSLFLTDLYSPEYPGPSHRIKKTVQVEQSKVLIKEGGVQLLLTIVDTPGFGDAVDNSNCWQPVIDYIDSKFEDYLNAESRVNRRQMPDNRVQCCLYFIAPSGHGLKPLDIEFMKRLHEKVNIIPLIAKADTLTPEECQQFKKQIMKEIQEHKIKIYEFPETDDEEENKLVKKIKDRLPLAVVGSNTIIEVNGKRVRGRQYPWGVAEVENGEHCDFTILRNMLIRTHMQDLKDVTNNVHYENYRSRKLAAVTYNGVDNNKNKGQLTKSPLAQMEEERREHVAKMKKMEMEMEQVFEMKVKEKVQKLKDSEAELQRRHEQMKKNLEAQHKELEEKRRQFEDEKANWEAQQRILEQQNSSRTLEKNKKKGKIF
UniProt Q92599: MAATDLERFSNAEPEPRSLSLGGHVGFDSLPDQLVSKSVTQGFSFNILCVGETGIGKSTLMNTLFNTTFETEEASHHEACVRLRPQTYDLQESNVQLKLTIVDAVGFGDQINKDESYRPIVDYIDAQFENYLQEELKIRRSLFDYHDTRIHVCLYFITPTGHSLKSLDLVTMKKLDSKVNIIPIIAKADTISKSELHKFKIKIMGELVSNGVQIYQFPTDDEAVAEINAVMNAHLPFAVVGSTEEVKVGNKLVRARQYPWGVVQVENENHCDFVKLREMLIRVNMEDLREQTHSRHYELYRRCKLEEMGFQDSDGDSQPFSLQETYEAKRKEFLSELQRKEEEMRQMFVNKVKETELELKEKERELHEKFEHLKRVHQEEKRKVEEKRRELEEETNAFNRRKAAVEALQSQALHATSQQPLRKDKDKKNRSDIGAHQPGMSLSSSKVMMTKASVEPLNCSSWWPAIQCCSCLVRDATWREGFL
UniProt Q13228: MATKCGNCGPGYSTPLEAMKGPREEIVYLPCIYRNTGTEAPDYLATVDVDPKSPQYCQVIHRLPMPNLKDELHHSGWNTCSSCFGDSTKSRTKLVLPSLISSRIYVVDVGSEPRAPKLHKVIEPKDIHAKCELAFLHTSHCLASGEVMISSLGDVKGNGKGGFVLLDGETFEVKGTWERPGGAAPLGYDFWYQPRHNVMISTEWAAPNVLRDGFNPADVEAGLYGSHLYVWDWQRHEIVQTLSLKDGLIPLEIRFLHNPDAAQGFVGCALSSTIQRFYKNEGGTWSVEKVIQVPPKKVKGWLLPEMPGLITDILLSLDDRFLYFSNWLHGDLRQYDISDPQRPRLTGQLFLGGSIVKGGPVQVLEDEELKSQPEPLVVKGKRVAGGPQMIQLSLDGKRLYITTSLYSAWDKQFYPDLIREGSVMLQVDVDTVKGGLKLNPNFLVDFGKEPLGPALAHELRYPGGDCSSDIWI
UniProt P31947: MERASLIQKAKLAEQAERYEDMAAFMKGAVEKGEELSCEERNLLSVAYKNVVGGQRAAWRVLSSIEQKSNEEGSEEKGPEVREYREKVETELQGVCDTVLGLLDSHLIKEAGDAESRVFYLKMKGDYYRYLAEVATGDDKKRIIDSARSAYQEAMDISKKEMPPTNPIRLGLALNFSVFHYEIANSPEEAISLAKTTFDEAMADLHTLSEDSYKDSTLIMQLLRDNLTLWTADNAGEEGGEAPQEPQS
UniProt Q7L8J4: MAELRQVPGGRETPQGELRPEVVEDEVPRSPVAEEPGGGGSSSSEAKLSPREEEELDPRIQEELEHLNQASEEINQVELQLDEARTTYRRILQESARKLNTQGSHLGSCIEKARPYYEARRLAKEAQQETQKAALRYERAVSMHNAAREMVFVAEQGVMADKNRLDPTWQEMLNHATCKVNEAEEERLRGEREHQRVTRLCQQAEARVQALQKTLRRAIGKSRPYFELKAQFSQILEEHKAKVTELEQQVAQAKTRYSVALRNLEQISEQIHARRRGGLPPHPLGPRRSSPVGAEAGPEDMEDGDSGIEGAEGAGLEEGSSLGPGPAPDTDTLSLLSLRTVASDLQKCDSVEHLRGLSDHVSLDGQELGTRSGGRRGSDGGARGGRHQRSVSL

Tests used:
Assay in all cases: log2 fold change, soluble protein after heating vs DMSO (PISA); higher = thermal stabilisation; K562 cells, 10 uM, 30 min; active = over 0.2 and 3.5 SD of the protein, either way, in both replicates (recomputed)
erlotinib = compound: C#Cc1cccc(Nc2ncnc3cc(OCCOC)c(OCCOC)cc23)c1 [erlotinib]
Method in brief: (§1)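 K562 cells at 2×10^6 cells/mL were exposed to 10 μM compound for 30 min, then aliquots were heated for 3 min across 48°C-58°C, pooled, and extracted in PBS containing 0.5% NP-40 at 4°C. The supernatant after 21,000xg for 90 min was taken as soluble protein and measured by TMTpro 16plex LC-MS/MS with channel sums equalised. Thermal stability is reported relative to control samples, with values from duplicates. Fold changes are given on a log2 scale.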

[1] = compound: C/C(=N\NC(=O)C1=CC(=CC=C1)S(=O)(=O)N2CCOCC2)/C3=C(C=CC(=C3)Cl)O
Method in brief: as §1

[2] = compound: C1=CC(=C(C=C1Cl)C2=NC3=NC=CN=C3C(=N2)NC4=CC=NC=C4)F
Method in brief: as §1

[3] = compound: C1=CC(=CC=C1C2=NC3=C(N2)C=C(C=C3)C(=O)N)OC4=CC=C(C=C4)Cl
Method in brief: as §1

[4] = compound: C1=CC2=C(C=CC(=C2)/C=C\3/C(=O)NC(=NCC4=CC=CS4)S3)N=C1
Method in brief: as §1

[5] = compound: C1=CC2=NC=CN=C2C=C1/C=C/3\C(=O)NC(=O)S3
Method in brief: as §1

[6] = compound: C1=CC=C(C=C1)C2=NC(=C(N2)C3=CC=NC=C3)C4=CC(=C(C=C4)Cl)O
Method in brief: as §1

[7] = compound: C1=CC=C2C(=C1)C3=NNC4=CC=CC(=C43)C2=O
Method in brief: as §1

[8] = compound: C1CCN(C1)C(=O)NC2=CC=CC(=C2)NC3=NC=C(C(=N3)NCCC4=CN=CN4)Br
Method in brief: as §1

[9] = compound: C1CN(CCC1(CC2=CC=C(C=C2)Cl)N)C3=NC=NC4=C3C=CN4
Method in brief: as §1

Measured: log2 fold change

SERINC1 (UniProt Q9NRX5)
inactive: erlotinib -0.034 | [1] -0.023 | [2] -0.006 | [3] 0.096 | [4] -0.026 | [5] 0.085 | [6] 0.018 | [7] 0.149 | [8] 0.115 | [9] -0.031

SIRT2 (UniProt Q8IXJ6)
inactive: erlotinib 0.03 | [1] 0.055 | [2] 0.001 | [3] 0.054 | [4] -0.113 | [5] 0.017 | [6] 0.051 | [7] 0.029 | [8] 0.025 | [9] 0.016

SERPINB6, A0A087X1N8
inactive: erlotinib -0.007 | [1] 0.013 | [2] 0.042 | [3] 0.004 | [4] -0.001 | [5] 0.009 | [6] 0.067 | [7] 0.009 | [8] 0.035 | [9] 0.094

SIGMAR1 (UniProt Q99720)
inactive: erlotinib -0.009 | [1] -0.069 | [2] 0.098 | [3] 0.013 | [4] -0.01 | [5] 0.063 | [6] -0.032 | [7] -0.068 | [8] -0.002 | [9] 0.089

SFXN2 (UniProt Q96NB2)
inactive: erlotinib 0.09 | [1] -0.065 | [2] 0.099 | [3] -0.018 | [4] 0.084 | [5] 0.009 | [6] -0.018 | [7] -0.064 | [8] -0.03 | [9] 0.016

SHOC2 (UniProt Q9UQ13)
inactive: erlotinib -0.03 | [1] 0.048 | [2] 0.004 | [3] -0.026 | [4] 0.051 | [5] 0.028 | [6] -0.028 | [7] -0.001 | [8] -0.076 | [9] -0.038

SGMS1 (UniProt Q86VZ5)
inactive: erlotinib 0.005 | [1] 0.06 | [2] 0.003 | [3] 0.043 | [4] -0.031 | [5] 0.014 | [6] 0.058 | [7] -0.045 | [8] -0.037 | [9] 0.049

SIKE1 (UniProt Q9BRV8)
inactive: erlotinib 0.052 | [1] -0.056 | [2] 0.069 | [3] -0.015 | [4] -0.001 | [5] -0.021 | [6] 0.02 | [7] -0.016 | [8] -0.041 | [9] -0.069

SF3B1 (UniProt O75533)
inactive: erlotinib 0.006 | [1] 0.066 | [2] -0.06 | [3] 0.007 | [4] 0.023 | [5] 0.009 | [6] 0.008 | [7] -0.019 | [8] -0.013 | [9] -0.058

SEL1L3 (UniProt Q68CR1)
inactive: erlotinib 0.059 | [1] -0.006 | [2] -0.064 | [3] -0.064 | [4] -0.013 | [5] 0.091 | [6] -0.07 | [7] -0.008 | [8] 0.03 | [9] 0.006

SEC62 (UniProt Q99442)
inactive: erlotinib 0.013 | [1] -0.026 | [2] 0.01 | [3] -0.012 | [4] -0.003 | [5] -0.026 | [6] 0.001 | [7] -0.06 | [8] -0.031 | [9] 0.006

Looked up one by one from the entries so far (two):
SHOC2 (UniProt Q9UQ13)
inactive: erlotinib -0.03 | [1] 0.048 | [2] 0.004 | [3] -0.026 | [4] 0.051 | [5] 0.028 | [6] -0.028 | [7] -0.001 | [8] -0.076 | [9] -0.038

SIKE1 (UniProt Q9BRV8)
inactive: erlotinib 0.052 | [1] -0.056 | [2] 0.069 | [3] -0.015 | [4] -0.001 | [5] -0.021 | [6] 0.02 | [7] -0.016 | [8] -0.041 | [9] -0.069

Following part.

SERGEF (UniProt Q9UGK8)
inactive: erlotinib 0.006 | [1] 0.029 | [2] -0.025 | [3] 0.02 | [4] 0.057 | [5] 0.028 | [6] 0.241 | [7] 0.071 | [8] -0.02 | [9] 0.046

SH3GLB2 (UniProt Q9NR46)
inactive: erlotinib 0.048 | [1] 0.081 | [2] -0.044 | [3] -0.021 | [4] 0 | [5] 0.01 | [6] -0.033 | [7] -0.021 | [8] -0.022 | [9] -0.013

SEPTIN5 (UniProt Q99719)
inactive: erlotinib 0.009 | [1] 0.014 | [2] 0.021 | [3] 0.006 | [4] 0.004 | [5] 0.019 | [6] -0.011 | [7] 0.015 | [8] -0.012 | [9] 0.039

SKP1 (UniProt P63208)
inactive: erlotinib -0.003 | [1] -0.036 | [2] 0.05 | [3] -0.011 | [4] -0.048 | [5] 0.045 | [6] 0.047 | [7] 0.009 | [8] -0.006 | [9] 0.03

SERBP1 isoform 3 (UniProt Q8NC51)
inactive: erlotinib 0.06 | [1] -0.266 | [2] -0.171 | [3] -0.05 | [4] -0.023 | [5] 0.035 | [6] -0.027 | [7] -0.049 | [8] 0.021 | [9] 0.376

SEPTIN7 (UniProt Q16181)
inactive: erlotinib 0.019 | [1] 0.059 | [2] 0.039 | [3] -0.015 | [4] -0.021 | [5] 0.005 | [6] 0.11 | [7] 0.102 | [8] -0.01 | [9] 0.029

SH3BGRL2 (UniProt Q9UJC5)
inactive: erlotinib -0.093 | [1] 0.066 | [2] -0.031 | [3] -0.033 | [4] -0.006 | [5] -0.088 | [6] 0.105 | [7] 0.002 | [8] -0.035 | [9] -0.01

SENP6 (UniProt Q9GZR1)
inactive: erlotinib 0.028 | [1] 0.033 | [3] -0.049 | [4] -0.029 | [5] 0.08 | [6] -0.011 | [7] -0.078 | [8] -0.061 | [9] 0.049
active: [2] 0.237

SEPTIN5 (UniProt G3XAH0)
inactive: erlotinib 0.009 | [1] -0.251 | [2] 0.146 | [3] 0.076 | [4] -0.022 | [5] -0.035 | [6] 0.014 | [7] -0.24 | [8] 0.009 | [9] 0.049

SEPTIN8 (UniProt Q92599)
inactive: erlotinib -0.012 | [1] 0.036 | [2] 0.037 | [3] -0.014 | [4] 0.001 | [5] -0.01 | [6] 0.02 | [7] 0.022 | [8] 0.005 | [9] 0.03

SEPTIN9 (UniProt Q9UHD8)
inactive: erlotinib 0.033 | [1] -0.005 | [2] 0.069 | [3] -0.001 | [4] 0.002 | [5] -0.001 | [6] 0.045 | [7] 0.081 | [8] 0.003 | [9] 0.037

SELENBP1 isoform 4 (UniProt Q13228)
inactive: erlotinib -0.01 | [1] -0.033 | [2] 0.026 | [3] 0.035 | [4] -0.058 | [5] -0.014 | [6] 0.046 | [7] -0.019 | [8] 0.017 | [9] 0.057

SH3GLB1 isoform 2 (UniProt Q9Y371)
inactive: erlotinib 0.044 | [1] 0 | [2] -0.098 | [3] 0.006 | [4] -0.052 | [5] 0.048 | [6] -0.111 | [7] 0.024 | [8] 0.06 | [9] -0.037

SFN (UniProt P31947)
inactive: erlotinib 0.004 | [1] 0.034 | [2] 0.047 | [3] -0.044 | [4] 0.017 | [5] -0.032 | [6] -0.033 | [7] 0.006 | [8] 0.024 | [9] 0.01

SH3GL1 (UniProt Q99961)
inactive: erlotinib 0.024 | [1] 0.068 | [2] 0.013 | [3] 0.003 | [4] 0.058 | [5] 0.022 | [6] 0.019 | [7] 0.004 | [8] -0.047 | [9] -0.045

SIN3A (UniProt Q96ST3)
inactive: erlotinib -0.011 | [1] 0.008 | [2] -0.077 | [3] 0.054 | [4] -0.055 | [5] 0.048 | [6] 0.005 | [7] 0.015 | [8] 0.095 | [9] -0.001

SERPINF1 (UniProt P36955)
inactive: erlotinib -0.069 | [1] -0.049 | [2] -0.033 | [3] -0.023 | [4] 0.051 | [5] -0.039 | [6] -0.009 | [7] -0.055 | [8] -0.113 | [9] 0.035

SH3BP5L (UniProt Q7L8J4)
inactive: erlotinib 0.023 | [1] 0.043 | [2] 0.049 | [3] -0.013 | [4] -0.005 | [5] 0.072 | [6] 0.067 | [7] 0.027 | [8] -0.017 | [9] -0.003
